Results taken from patent publication US20240287005A1, “ISOXAZOLINE PESTICIDES” (Elanco Tiergesundheit AG, priority 2021, published 2024).
Some results were stated once for a whole list of compounds, not compound by compound.

How the values were obtained:
Ctenocephalides felis = assay: In vitro evaluation of contact activity against adult cat fleas; conditions: adult fleas in coated glass vial, after 48 h
Procedure: In vitro contact tests with […] are conducted with adult males and females of Ctenocephalides felis. For the coating of the test vials, the test substance is dissolved and diluted in acetone p.a. to the desired concentration. The solution is then homogeneously applied to the inner walls and base of a glass vial by turning and rocking on an orbital shaker until complete evaporation of the solvent. For example, with 900 ppm solution of test substance an area-based dose of 5 μg/cm^2 is achieved.
After the solvent is completely evaporated, approximately 10 adult fleas are applied to each coated test vial, which is then sealed with a perforated plastic lid and incubated in a horizontal position in the dark at room temperature and ambient humidity. Insecticidal activity is determined after 48 h. Fleas which remain motionless on the base of the test vial or move uncoordinated without occasionally jumping or walking straight are considered dead or moribund, respectively. An insecticidal activity of 100% means all fleas were dead or moribund. An insecticidal activity of 0% means none of the fleas was affected. From a dose response curve the respective EC50 was calculated (4-parameter logistic curve fitting).

Rhipicephalus microplus = assay: In vitro evaluation of contact activity against larval cattle ticks; conditions: larval ticks in coated glass vial, after 48 h
Rhipicephalus sanguineus = assay: In vitro evaluation of contact activity against adult brown dog ticks; conditions: adult ticks in coated glass vial, after 48 h

SMILES	EC50 insecticidal activity (fleas dead or moribund) (Ctenocephalides felis) [μg/cm^2]	EC50 acaricidal activity (tick larvae dead or moribund) (Rhipicephalus microplus) [μg/cm^2]	EC50 acaricidal activity (ticks dead or moribund) (Rhipicephalus sanguineus) [μg/cm^2]
Cc1cc(C2=NOC(c3cc(C(F)(F)F)cc(C(F)(F)F)c3F)(C(F)(F)F)C2)ccc1C(=O)NCC(=O)NCC(F)(F)F (single isomer, unassigned) [Example 3.1]	< 0.1		
CNC(=O)[C@H]1C[C@@H](NC(=O)c2ccc(C3=NOC(c4cc(C(F)(F)F)cc(Cl)c4F)(C(F)(F)F)C3)cc2C)C1 (single isomer, unassigned) [Example 2.3, 4-((S*)-5-(3-chloro-2-fluoro-5-(trifluoromethyl)phenyl)-5-(trifluoromethyl)-4,5-dihydro-isoxazol-3-yl)-2-methyl-N-(cis-3-(methylcarbamoyl)cyclo-butyl)benzamide]		< 0.1	< 1
Cc1cc(C2=NOC(c3cc(C(F)(F)F)cc(Cl)c3F)(C(F)(F)F)C2)ccc1C(=O)N[C@H]1C[C@@H](C(F)(F)F)C1 (single isomer, unassigned) [Example 1.8, 4-((S*)-5-(3-chloro-2-fluoro-5-(trifluoromethyl)phenyl)-5-(trifluoromethyl)-4,5-dihydro-isoxazol-3-yl)-2-methyl-N-((cis)-3-(trifluoromethyl)cyclo-butyl)benzamide]	< 0.1		
